The inconclusive results got no clear call from the source; some entries with a clear call stand among them for comparison. A potency beside an inconclusive call is a rough fit, not a confirmed value. Calls of active or inactive are those of the source. Calls follow the shape of the dose curve; as a rule, active = well fitted cell-killing curve with a large enough effect; inconclusive = small, poorly fitted or top-dose-only effect, or effect the other way; inactive = no such curve, though single readings can be large or run the other way.
What follows are compounds tested on SW626 (assay: Confirmatory qHTS for gynecologic anti-cancer compounds from libraries of approved drugs and bioactive compounds). Conditions: gynecologic cancer cell panel viability, ATPlite luminescence, 48 h; series mostly up to 57.6 µM; activity change, negative = viability loss: at the top concentration.
Method in brief: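 1,000 cells/well; 16 h pre-incubation 37 C, 5% CO2; pin-transferred cpd in DMSO, 11 conc (1:3), 57.5 uM–0.977 nM; 48 h; ATPlite, 15 min RT; luminescence → IC50.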
% is scaled to controls: 0 for no effect and ±100 for the full control effect; potency is read from the fitted curve at half-maximal effect.
Also: nearly all actives have a fitted effect of over 55% in size.

Row | SMILES | Potency | activity change, negative = viability loss
1 | COc1cc2nccc(Oc3ccc(NC(=O)Nc4cc(C)on4)c(Cl)c3)c2cc1OC | inconclusive: 2.73 µM [rising, partial curve, poor fit] | –
2 | COc1cccc2c1C(=O)c1c(O)c3c(c(O)c1C2=O)C[C@@](O)(C(=O)CO)C[C@@H]3O[C@H]1C[C@H](N)[C@H](O)[C@H](C)O1 | inconclusive: 0.306 µM [cytotoxic, full curve] | –
3 | CC(C)Nc1cc(-c2c[nH]c(C(=O)N[C@H](CO)c3cccc(Cl)c3)c2)c(Cl)cn1 | inconclusive: 6.85 µM [cytotoxic, partial curve] | –
4 | COc1cccc2c1C(=O)c1c(O)c3c(c(O)c1C2=O)C[C@@](O)(C(=O)CO)C[C@@H]3O[C@H]1C[C@H](N)[C@H](O[C@@H]2CCCCO2)[C@H](C)O1 | active: 7.69 µM | –
5 | CNC(=O)CN1CCC(Oc2cc3c(Nc4cccc(Cl)c4F)ncnc3cc2OC)CC1 | inconclusive: 13.7 µM [cytotoxic, partial curve] | –
6 | COc1cc(F)c(F)c(Nc2ccc(I)cc2F)c1NS(=O)(=O)C1(CC(O)CO)CC1 (stereo not drawn) | inconclusive: 0.432 µM [cytotoxic, full curve] | –
7 | CCN(CC)CCCC(C)Nc1ccnc2cc(Cl)ccc12 (stereo not drawn) | – | inactive: -5.13% [at 19.5 µM]
8 | Cc1nc(N)ncc1-c1nc(N2CCOCC2)c2sc(C(C)(C)O)cc2n1 | inconclusive: 1.72 µM [cytotoxic, full curve] | –
9 | COc1cc(C(=O)N2CCC(N3CCN(C)CC3)CC2)ccc1Nc1ncc2c(n1)N(C)c1ccccc1C(=O)N2C | active: 7.69 µM | –
10 | C[C@]12CCC(=O)C=C1CC[C@@H]1[C@@H]2[C@@H](O)C[C@@]2(C)[C@H]1CC[C@]2(O)C(=O)CO | – | inactive: -4.48%
11 | Nc1ccccc1NC(=O)c1ccc(CNC(=O)OCc2cccnc2)cc1 | active: 3.06 µM | –
12 | CC(C)Oc1ccc(C(=O)NC(CNC(=O)CN(C)C)Cc2ccc(-c3cn4cccc(C(C)O)c4n3)cc2)cc1Cl (stereo not drawn) | – | inactive: -23.5%
13 | COc1cc2c(cc1-c1c(C)noc1C)ncc1[nH]c(=O)n(C(C)c3ccccn3)c12 (stereo not drawn) | inconclusive: 1.37 µM [cytotoxic, full curve, poor fit] | –
14 | CC1=C(/C=C/C(C)=C/C=C/C(C)=C/C(=O)Nc2ccc(O)cc2)C(C)(C)CCC1 | inconclusive: 3.43 µM [rising, partial curve, poor fit] | –
15 | Cc1nc(Nc2ncc(C(=O)Nc3c(C)cccc3Cl)s2)cc(N2CCN(CCO)CC2)n1 | inconclusive: 13.7 µM [cytotoxic, full curve] | –
16 | O=C(NCC(O)CO)c1ccncc1Nc1ccc(I)cc1F (stereo not drawn) | inconclusive: 1.93 µM [cytotoxic, partial curve] | –
17 | CC(=O)NCC(=O)N1C2CCC1c1cc(Nc3ncc(C(F)(F)F)c(NC4CCC4)n3)ccc12 (stereo not drawn) | inconclusive: 7.69 µM [cytotoxic, partial curve, poor fit] | –

Row | SMILES | Potency | activity change, negative = viability loss
18 | NC(=O)c1cnc(-c2ccc(C3(N)CCC3)cc2)c(-c2ccccc2)c1 | active: 24.3 µM | –
19 | CCn1cc(-c2ccnc3[nH]c(-c4cccc(CN(C)C)c4)cc23)c(-c2ccc(NC(=O)N(C)C)cc2)n1 | inconclusive: 5.95 µM [cytotoxic, partial curve] | –
20 | CCC(=O)N1CCN(c2ccc(-n3c(=O)ccc4cnc5ccc(-c6cnc7ccccc7c6)cc5c43)cc2C(F)(F)F)CC1 | inconclusive: 0.157 µM [cytotoxic, full curve] | –
21 | O=C(O)c1ccc(Nc2ncc3c(n2)-c2ccc(Cl)cc2C(c2c(F)cccc2F)=NC3)cc1 | – | inactive: -24.9%
22 | CNC(=O)c1ccccc1Nc1nc(Nc2ccc(N3CCOCC3)cc2OC)ncc1Cl | inconclusive: 1.93 µM [cytotoxic, full curve] | –
23 | Cc1ccn(-c2ccc(-c3ncco3)cc2)c(=O)c1-c1ccc2nc(N)ncc2c1 | inconclusive: 17.2 µM [cytotoxic, partial curve, poor fit] | –
24 | CCOc1cc2ncc(C#N)c(Nc3ccc(F)c(Cl)c3)c2cc1NC(=O)/C=C/CN(C)C | inconclusive: 30.6 µM [cytotoxic, single point] | –
25 | Cc1cc(Nc2cc(N3CCN(C)CC3)nc(Sc3ccc(NC(=O)C4CC4)cc3)n2)n[nH]1 | inconclusive: 13.7 µM [cytotoxic, partial curve, poor fit] | –
26 | O=C1Cc2cc(CCN3CCN(c4nsc5ccccc45)CC3)c(Cl)cc2N1 | – | inactive: -0.656%
27 | COc1cc(Nc2ncc(F)c(Nc3ccc4c(n3)N(COP(=O)(O)O)C(=O)C(C)(C)O4)n2)cc(OC)c1OC | inconclusive: 4.85 µM [cytotoxic, full curve, poor fit] | –
28 | Cc1cnc(Nc2ccc(CN3CCOCC3)cc2)nc1Nc1cccc(S(=O)(=O)NC(C)(C)C)c1 | active: 15.3 µM | –
29 | COc1ccc(-c2nc3ccc(C4=NNC(=O)CC4C)cc3[nH]2)cc1 (stereo not drawn) | inconclusive: 19.3 µM [cytotoxic, partial curve] | –
30 | CNc1nccc(-c2cccnc2Oc2cc(C(=O)Nc3cccc(C(F)(F)F)c3)ccc2C)n1 | inconclusive: 5.44 µM [cytotoxic, partial curve] | –
31 | CC(C)c1nn(-c2c(Cl)cccc2Cl)c2nc(Cc3ccc(OCCO)cc3)[nH]c(=O)c12 | – | inactive: 24.5%
32 | Cn1cc(-c2ccc3ncc(Cc4ccc5ncccc5c4)n3n2)cn1 | inconclusive: 7.69 µM [rising, partial curve, poor fit] | –
33 | O=c1c(-c2ccc(O)cc2)coc2cc(O)cc(O)c12 | inconclusive: 19.3 µM [cytotoxic, partial curve] | –

Entries 29–30 of the list above:
Row | SMILES | Potency | activity change, negative = viability loss
29 | COc1ccc(-c2nc3ccc(C4=NNC(=O)CC4C)cc3[nH]2)cc1 (stereo not drawn) | inconclusive: 19.3 µM [cytotoxic, partial curve] | –
30 | CNc1nccc(-c2cccnc2Oc2cc(C(=O)Nc3cccc(C(F)(F)F)c3)ccc2C)n1 | inconclusive: 5.44 µM [cytotoxic, partial curve] | –

Source: PubChem BioAssay AID1345085 (National Center for Advancing Translational Sciences (NCATS), 2018)
